Measured values published in paper PMC8635156, “Structural and Functional Analysis of SsaV Cytoplasmic Domain and Variable Linker States in the Context of the InvA-SsaV Chimeric Protein” (Microbiology Spectrum, 2021).
These are yes or no findings as the source states them, for the method shown.

Sequences of proteins named here, by UniProt entry; tags and fusion partners are left off. Residues count along the entry.
UniProt P0A1I3, residues 357-685: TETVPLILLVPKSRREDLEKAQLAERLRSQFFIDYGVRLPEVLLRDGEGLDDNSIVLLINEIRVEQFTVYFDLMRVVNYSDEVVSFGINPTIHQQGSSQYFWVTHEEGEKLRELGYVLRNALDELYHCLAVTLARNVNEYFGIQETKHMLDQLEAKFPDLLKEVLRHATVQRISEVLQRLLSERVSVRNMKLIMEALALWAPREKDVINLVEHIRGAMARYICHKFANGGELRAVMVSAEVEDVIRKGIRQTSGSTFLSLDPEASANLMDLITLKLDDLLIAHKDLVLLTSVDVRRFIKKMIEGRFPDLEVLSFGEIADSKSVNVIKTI

How the values were obtained:
[1] = biological target: InvA cytoplasmic domain (InvAC) (Salmonella enterica serovar Typhimurium) (UniProt P0A1I3); assay: dynamic light scattering; DynaPro NanoStar, cuvette; 0.5 mg/ml protein in 20 mM Tris-HCl pH 8.0, 150 mM NaCl; 25 °C; both purified
[2] = biological target: InvA cytoplasmic domain (InvAC) (Salmonella enterica serovar Typhimurium) (UniProt P0A1I3); assay: SEC; gel filtration of purified cytoplasmic domains (Superdex 200 Increase 10/300 GL; 20 mM Tris-HCl pH 8.0, 150 mM NaCl); Fig. 1B at two salt concentrations (physiological and high salt); Fig. 4D wild type and variants; both purified
[3] = biological target: SsaVCN4 (deletion of M346-V347-P348-G349) (Salmonella enterica serovar Typhimurium) (UniProt P74856); assay: as above

| Substance | binding [1] | binding [2] | binding [3] |
| --- | --- | --- | --- |
| InvA cytoplasmic domain (InvAC) (from UniProt P0A1I3 357-685) (domain or fragment) | no binding (tested: 0.5 mg/ml) | no binding | – |
| SsaVCN4 (deletion of M346-V347-P348-G349) (from UniProt P74856 346-681) (domain or fragment) | – | – | no binding |
